Results as given in the supplement of paper PMC10849652.
The list shows a part of the results.

Protein sequences, listed by entry. Tags and fused reporters are not part of them. Lines headed by an entry give the natural chain unless they say otherwise; changes in a name come on top.
UniProt Q9NP80: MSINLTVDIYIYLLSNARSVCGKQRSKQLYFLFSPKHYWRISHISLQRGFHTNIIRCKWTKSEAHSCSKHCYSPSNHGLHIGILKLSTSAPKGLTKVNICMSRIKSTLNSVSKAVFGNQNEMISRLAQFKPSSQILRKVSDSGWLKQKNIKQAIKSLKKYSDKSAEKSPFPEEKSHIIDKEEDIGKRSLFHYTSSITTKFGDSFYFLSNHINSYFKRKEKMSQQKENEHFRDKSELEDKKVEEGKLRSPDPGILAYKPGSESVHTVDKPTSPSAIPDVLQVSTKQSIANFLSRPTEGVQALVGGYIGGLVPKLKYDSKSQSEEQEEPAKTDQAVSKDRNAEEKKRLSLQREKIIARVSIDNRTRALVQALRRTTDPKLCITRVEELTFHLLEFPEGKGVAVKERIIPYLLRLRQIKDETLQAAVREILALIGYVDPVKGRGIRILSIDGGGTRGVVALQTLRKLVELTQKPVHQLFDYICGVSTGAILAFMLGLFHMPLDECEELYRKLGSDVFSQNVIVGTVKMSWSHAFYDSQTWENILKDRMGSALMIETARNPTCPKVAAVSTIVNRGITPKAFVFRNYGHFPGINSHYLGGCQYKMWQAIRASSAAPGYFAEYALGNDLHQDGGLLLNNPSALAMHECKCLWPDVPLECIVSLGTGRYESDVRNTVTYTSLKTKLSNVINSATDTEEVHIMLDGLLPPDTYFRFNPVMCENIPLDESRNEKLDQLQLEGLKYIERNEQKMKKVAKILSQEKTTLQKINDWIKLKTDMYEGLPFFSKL
UniProt P35813: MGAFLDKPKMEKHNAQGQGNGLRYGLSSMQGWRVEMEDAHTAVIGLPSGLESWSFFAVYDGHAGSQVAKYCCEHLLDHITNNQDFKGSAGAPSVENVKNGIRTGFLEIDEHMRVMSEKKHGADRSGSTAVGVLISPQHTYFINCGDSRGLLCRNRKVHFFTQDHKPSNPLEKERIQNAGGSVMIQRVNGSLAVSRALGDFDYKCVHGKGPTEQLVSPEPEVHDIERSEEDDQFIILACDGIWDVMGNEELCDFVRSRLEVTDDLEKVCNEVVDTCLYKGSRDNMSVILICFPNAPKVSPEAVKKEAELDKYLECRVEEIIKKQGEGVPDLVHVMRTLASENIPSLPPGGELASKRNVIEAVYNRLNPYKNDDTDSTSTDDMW
UniProt Q9BX97: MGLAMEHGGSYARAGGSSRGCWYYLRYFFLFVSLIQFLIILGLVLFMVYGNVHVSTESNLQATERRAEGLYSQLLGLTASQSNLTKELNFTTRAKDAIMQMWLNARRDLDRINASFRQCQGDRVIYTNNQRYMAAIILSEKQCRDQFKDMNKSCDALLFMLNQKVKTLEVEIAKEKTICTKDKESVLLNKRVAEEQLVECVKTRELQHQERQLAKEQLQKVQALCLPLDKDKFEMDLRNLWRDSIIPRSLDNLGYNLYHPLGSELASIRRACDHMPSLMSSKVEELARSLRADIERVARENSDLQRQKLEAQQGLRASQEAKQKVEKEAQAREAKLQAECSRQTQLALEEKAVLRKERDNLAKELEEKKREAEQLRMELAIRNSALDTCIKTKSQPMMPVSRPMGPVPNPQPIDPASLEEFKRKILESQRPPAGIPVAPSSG
UniProt Q6UW63: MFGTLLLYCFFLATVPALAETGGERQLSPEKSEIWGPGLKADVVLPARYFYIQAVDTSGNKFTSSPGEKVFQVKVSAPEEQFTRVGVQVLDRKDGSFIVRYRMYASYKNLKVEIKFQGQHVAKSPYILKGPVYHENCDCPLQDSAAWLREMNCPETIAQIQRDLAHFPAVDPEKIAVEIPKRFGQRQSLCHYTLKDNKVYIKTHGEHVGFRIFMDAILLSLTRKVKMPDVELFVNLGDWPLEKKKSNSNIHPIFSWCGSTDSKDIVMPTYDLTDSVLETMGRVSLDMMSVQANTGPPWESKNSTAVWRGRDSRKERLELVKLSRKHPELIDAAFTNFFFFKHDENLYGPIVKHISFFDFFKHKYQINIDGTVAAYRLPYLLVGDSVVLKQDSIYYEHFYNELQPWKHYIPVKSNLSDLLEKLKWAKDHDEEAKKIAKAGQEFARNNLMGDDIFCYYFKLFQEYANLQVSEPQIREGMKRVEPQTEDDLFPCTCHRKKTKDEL
UniProt Q9BUI4: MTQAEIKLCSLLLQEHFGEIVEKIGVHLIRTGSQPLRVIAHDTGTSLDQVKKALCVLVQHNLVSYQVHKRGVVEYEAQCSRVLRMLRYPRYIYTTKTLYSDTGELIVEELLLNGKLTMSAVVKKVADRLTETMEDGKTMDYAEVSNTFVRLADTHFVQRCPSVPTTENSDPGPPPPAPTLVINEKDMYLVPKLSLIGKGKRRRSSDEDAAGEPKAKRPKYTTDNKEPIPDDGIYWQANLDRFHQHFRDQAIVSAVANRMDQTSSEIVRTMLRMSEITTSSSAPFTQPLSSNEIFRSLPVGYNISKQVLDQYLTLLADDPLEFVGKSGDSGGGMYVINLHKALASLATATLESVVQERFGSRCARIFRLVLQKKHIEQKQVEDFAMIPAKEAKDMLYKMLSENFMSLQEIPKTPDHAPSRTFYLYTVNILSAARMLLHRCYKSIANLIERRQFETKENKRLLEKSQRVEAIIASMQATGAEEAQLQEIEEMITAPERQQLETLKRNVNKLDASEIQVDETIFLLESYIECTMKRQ
UniProt Q8WZA1: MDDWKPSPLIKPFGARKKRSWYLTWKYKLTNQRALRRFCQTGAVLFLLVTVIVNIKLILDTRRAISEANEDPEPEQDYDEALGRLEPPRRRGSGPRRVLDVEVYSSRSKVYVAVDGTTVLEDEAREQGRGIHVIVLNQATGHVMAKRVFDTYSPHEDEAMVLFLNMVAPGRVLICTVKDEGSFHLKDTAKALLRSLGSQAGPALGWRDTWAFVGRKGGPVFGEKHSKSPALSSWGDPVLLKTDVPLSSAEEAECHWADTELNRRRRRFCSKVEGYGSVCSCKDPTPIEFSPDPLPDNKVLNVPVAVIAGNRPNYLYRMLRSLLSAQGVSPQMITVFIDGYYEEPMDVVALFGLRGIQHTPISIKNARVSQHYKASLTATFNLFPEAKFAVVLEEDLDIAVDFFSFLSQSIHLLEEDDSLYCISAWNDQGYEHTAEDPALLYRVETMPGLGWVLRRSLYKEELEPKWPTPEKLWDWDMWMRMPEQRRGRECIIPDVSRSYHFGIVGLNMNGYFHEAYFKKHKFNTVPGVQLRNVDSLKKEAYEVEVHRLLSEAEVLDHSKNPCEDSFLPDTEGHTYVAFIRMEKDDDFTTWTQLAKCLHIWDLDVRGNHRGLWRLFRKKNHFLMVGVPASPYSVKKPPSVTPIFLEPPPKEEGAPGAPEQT
UniProt Q9UHN1: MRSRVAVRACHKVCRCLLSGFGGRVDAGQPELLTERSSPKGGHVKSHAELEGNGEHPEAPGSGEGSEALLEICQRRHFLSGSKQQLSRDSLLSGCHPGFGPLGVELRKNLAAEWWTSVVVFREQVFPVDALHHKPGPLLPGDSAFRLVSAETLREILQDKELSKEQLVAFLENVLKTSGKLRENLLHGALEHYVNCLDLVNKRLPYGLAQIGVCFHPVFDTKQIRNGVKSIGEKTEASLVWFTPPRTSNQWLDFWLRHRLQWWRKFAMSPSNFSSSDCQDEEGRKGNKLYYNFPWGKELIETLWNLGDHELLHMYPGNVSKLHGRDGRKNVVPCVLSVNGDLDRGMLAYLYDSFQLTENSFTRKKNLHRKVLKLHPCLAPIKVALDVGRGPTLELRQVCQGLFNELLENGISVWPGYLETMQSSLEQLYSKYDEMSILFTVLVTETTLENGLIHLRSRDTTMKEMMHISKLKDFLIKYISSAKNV
UniProt P49005: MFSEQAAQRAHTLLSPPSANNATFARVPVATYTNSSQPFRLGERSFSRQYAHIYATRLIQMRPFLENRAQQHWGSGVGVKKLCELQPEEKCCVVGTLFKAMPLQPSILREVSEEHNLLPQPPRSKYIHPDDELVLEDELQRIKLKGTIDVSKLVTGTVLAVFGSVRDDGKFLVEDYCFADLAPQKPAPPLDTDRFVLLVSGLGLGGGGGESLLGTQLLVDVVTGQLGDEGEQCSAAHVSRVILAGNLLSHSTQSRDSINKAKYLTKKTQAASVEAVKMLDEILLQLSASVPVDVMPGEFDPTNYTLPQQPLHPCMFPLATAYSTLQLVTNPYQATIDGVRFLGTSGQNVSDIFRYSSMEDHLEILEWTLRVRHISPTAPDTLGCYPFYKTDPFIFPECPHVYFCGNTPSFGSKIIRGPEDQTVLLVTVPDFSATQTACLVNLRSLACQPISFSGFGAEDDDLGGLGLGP
UniProt Q15181: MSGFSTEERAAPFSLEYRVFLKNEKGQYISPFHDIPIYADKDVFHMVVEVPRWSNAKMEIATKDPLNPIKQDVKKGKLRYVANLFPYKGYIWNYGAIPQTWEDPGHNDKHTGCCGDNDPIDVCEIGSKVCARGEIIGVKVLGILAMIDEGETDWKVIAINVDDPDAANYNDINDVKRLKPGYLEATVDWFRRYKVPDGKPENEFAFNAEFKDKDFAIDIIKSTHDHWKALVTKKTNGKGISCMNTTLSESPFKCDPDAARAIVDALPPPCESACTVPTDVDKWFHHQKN
UniProt Q9HAB8: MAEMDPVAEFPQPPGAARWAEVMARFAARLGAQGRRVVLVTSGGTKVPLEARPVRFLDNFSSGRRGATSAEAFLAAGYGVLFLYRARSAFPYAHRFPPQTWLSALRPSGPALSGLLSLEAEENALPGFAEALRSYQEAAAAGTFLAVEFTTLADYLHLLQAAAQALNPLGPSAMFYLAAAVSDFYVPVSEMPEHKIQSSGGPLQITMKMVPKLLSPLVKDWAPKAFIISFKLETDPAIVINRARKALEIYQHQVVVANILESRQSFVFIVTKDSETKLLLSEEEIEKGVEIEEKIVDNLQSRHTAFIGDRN
UniProt Q15165: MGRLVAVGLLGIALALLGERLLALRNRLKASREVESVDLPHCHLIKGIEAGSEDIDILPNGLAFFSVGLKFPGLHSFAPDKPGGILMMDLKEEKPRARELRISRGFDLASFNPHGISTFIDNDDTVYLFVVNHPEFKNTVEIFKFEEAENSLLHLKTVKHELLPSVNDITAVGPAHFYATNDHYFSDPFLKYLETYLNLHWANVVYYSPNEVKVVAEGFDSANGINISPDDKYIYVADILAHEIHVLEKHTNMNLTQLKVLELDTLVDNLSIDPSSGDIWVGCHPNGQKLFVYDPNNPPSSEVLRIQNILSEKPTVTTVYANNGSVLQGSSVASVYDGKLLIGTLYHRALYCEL
UniProt Q7Z4H8: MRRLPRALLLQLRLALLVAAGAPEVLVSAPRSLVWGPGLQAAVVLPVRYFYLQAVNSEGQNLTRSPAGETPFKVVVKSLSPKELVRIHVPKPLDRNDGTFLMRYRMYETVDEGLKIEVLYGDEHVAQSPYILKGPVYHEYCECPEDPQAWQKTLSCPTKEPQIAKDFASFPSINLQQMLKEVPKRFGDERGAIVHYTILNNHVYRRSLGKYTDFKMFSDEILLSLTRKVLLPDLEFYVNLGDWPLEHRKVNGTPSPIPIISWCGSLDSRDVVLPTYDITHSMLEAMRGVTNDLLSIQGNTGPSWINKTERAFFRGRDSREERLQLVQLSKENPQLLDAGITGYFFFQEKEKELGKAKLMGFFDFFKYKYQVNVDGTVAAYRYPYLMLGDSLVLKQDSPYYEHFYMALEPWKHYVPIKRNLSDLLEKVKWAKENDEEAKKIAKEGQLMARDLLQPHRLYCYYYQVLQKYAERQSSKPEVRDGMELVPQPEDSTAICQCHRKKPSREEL
UniProt Q13794: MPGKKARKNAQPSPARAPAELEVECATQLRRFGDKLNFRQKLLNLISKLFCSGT
UniProt O15318: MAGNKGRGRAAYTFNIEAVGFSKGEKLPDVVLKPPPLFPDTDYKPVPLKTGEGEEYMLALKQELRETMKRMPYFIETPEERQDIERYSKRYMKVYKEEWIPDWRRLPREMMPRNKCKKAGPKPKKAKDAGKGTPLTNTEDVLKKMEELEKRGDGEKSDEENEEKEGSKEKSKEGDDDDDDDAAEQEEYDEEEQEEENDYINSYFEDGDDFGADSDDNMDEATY
UniProt Q9NZ53: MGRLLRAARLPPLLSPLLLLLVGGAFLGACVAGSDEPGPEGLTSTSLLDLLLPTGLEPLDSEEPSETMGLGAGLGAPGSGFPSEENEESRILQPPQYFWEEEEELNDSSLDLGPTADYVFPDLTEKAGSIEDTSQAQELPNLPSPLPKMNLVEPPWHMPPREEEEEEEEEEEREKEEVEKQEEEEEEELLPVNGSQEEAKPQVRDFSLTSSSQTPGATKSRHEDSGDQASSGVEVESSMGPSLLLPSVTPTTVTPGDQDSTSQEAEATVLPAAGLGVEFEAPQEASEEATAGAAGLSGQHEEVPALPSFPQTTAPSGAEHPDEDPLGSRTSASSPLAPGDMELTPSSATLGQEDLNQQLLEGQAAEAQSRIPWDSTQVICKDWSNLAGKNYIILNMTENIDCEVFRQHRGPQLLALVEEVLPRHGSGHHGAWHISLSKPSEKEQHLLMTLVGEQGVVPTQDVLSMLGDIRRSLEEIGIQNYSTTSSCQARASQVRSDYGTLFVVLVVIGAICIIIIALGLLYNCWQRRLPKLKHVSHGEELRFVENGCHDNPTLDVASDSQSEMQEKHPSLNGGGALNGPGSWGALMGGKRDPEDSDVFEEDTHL

Legend:
Experiment in all cases: log2 fold change, soluble protein after heating vs DMSO (PISA); higher = thermal stabilisation; K562 cells, 10 uM, 30 min; active = over 0.2 and 3.5 SD of the protein, either way, in both replicates (recomputed)
[1] = compound: NC(=O)Nc1cc(-c2cccc(F)c2)sc1C(=O)N[C@H]1CCCNC1
How it was run: (§1)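 Thermal stability values are relative to control samples and come from duplicates. They are expressed as log2 fold changes. For measurement, K562 cells (2×10^6 cells/mL) received 10 μM compound for 30 min, and aliquots were heated for 3 min over 48°C-58°C, pooled, and extracted at 4°C in PBS with 0.5% NP-40. Soluble protein, the supernatant after 21,000xg for 90 min, was quantified by TMTpro 16plex LC-MS/MS with equalised channel sums.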

[2] = compound: NC(=O)c1cnc(N[C@@H]2CCCC[C@@H]2N)nc1Nc1cccc(-n2nccn2)c1
How it was run: as §1

[3] = compound: NC1(c2ccc(-c3nc4ccn5c(=O)[nH]nc5c4cc3-c3ccccc3)cc2)CCC1
How it was run: as §1

[4] = compound: NCC(=O)Nc1ccc(-n2nc(C(F)(F)F)cc2-c2ccc3c(ccc4ccccc43)c2)cc1
How it was run: as §1

[5] = compound: Nc1ccccc1NC(=O)c1ccc(CNC(=O)OCc2cccnc2)cc1 [entinostat]
How it was run: as §1

[6] = compound: O=C(CCCCCCC(=O)Nc1ccccc1)NO [vorinostat]
How it was run: as §1

[7] = compound: O=C(CCCCCCNC(=O)c1cnc(N(c2ccccc2)c2ccccc2Cl)nc1)NO [citarinostat]
How it was run: as §1

[8] = compound: O=C(O)c1ccc2c(c1)nc(Nc1cccc(Cl)c1)c1ccncc12 [silmitasertib]
How it was run: as §1

[9] = compound: O=C1NC(=O)C(c2cnc3ccccn23)=C1c1cn2c3c(cc(F)cc13)CN(C(=O)N1CCCCC1)CC2
How it was run: as §1

[10] = compound: c1cc(OCCN2CCCCC2)cc(-c2n[nH]c3ccc(-c4nnc[nH]4)cc23)c1
How it was run: as §1

[11] = compound: c1cn2cc(-c3ccc4cn[nH]c4c3)nc(Nc3ccc(N4CCOCC4)cc3)c2n1 [entospletinib]
How it was run: as §1

Measured: log2 fold change

PNPLA8 (UniProt Q9NP80)
inactive: [1] -0.035 | [2] 0.007 | [3] -0.038 | [4] -0.038 | [5] -0.031 | [6] 0.111 | [7] 0.049 | [8] -0.036 | [9] -0.017 | [10] -0.052

PLIN2 (UniProt Q99541)
inactive: [1] 0.019 | [2] -0.194 | [3] -0.353 | [4] -0.059 | [5] 0.077 | [6] 0.203 | [7] 0.027 | [8] 0.035 | [9] -0.046 | [10] -0.044

POTEI (UniProt P0CG38)
inactive: [1] -0.058 | [2] 0.061 | [3] 0.139 | [4] 0.124 | [5] -0.004 | [6] -0.016 | [7] -0.009 | [8] -0.03 | [9] -0.053 | [10] -0.004

POLA2 (UniProt Q14181)
inactive: [1] -0.102 | [2] -0.115 | [3] -0.129 | [4] -0.133 | [5] -0.014 | [6] 0.072 | [7] 0.054 | [8] 0.058 | [9] -0.054 | [10] -0.026

POLA1 (UniProt P09884)
inactive: [1] -0.014 | [2] -0.068 | [3] -0.225 | [4] -0.04 | [5] 0.07 | [6] 0.054 | [7] 0.155 | [8] 0.021 | [9] -0.113 | [10] 0.227

PPM1A isoform 3 (UniProt P35813)
inactive: [1] -0.081 | [2] -0.003 | [3] -0.133 | [4] -0.033 | [5] -0.02 | [6] 0.029 | [7] 0.008 | [8] -0.029 | [9] -0.125 | [10] 0.013 | [11] 0.011

PLXNA1 (UniProt Q9UIW2)
inactive: [1] -0.102 | [2] 0.007 | [3] -0.041 | [4] -0.055 | [5] -0.018 | [6] -0.027 | [7] -0.007 | [8] -0.041 | [9] -0.024 | [10] -0.059 | [11] -0.004

POLR2L (UniProt P62875)
inactive: [1] -0.082 | [2] 0.036 | [3] -0.15 | [4] -0.133 | [5] 0.07 | [6] -0.165 | [7] -0.113 | [8] 0.056 | [9] -0.052 | [10] -0.074 | [11] 0.164

PLEKHF2 (UniProt Q9H8W4)
inactive: [1] -0.019 | [2] -0.04 | [3] -0.241 | [4] -0.119 | [5] 0.032 | [6] 0.04 | [7] 0.124 | [8] -0.024 | [9] -0.047 | [10] -0.092 | [11] -0.016

PLVAP (UniProt Q9BX97)
inactive: [1] 0 | [2] 0.111 | [3] -0.142 | [4] -0.022 | [5] -0.068 | [6] 0.13 | [7] 0.032 | [8] 0.145 | [9] 0 | [10] 0.101 | [11] 0.086

POGLUT2 (UniProt Q6UW63)
inactive: [1] 0.013 | [2] -0.004 | [3] -0.024 | [4] -0.021 | [5] -0.022 | [6] -0.022 | [7] -0.002 | [8] -0.013 | [9] 0.062 | [10] -0.037 | [11] -0.015

POP7 (UniProt O75817)
inactive: [1] -0.029 | [2] 0.056 | [3] 0.05 | [4] 0.004 | [5] 0.023 | [6] -0.048 | [7] 0.03 | [8] 0.009 | [9] -0.054 | [10] -0.073 | [11] 0.126

POLR3C (UniProt Q9BUI4)
inactive: [1] 0.016 | [2] -0.042 | [3] -0.027 | [4] 0.02 | [5] -0.009 | [6] -0.003 | [7] -0.003 | [8] -0.013 | [9] -0.068 | [10] 0.037 | [11] 0.007

PLXNB2 (UniProt O15031)
inactive: [1] -0.124 | [2] -0.007 | [3] -0.09 | [4] 0.06 | [5] -0.039 | [6] 0.138 | [7] 0.006 | [8] 0.004 | [9] -0.068 | [10] -0.049 | [11] -0.048

POU2F1 isoform 6 (UniProt P14859)
inactive: [1] -0.019 | [2] -0.147 | [3] -0.167 | [4] -0.072 | [5] 0.14 | [6] 0.087 | [7] 0.199 | [8] -0.009 | [9] 0 | [10] 0.031 | [11] 0.002

PLP2 (UniProt Q04941)
inactive: [1] -0.086 | [2] 0.133 | [3] 0.179 | [4] 0.35 | [5] -0.036 | [6] -0.064 | [7] 0.007 | [8] -0.05 | [9] -0.251 | [10] -0.063 | [11] 0.082

POMGNT1 isoform 2 (UniProt Q8WZA1)
inactive: [1] -0.301 | [2] 0.012 | [3] -0.2 | [4] -0.123 | [5] -0.12 | [6] -0.008 | [7] -0.089 | [8] -0.058 | [9] 0.003 | [10] -0.311 | [11] 0.147

POLG2 (UniProt Q9UHN1)
inactive: [1] -0.019 | [2] 0.013 | [3] -0.017 | [4] 0.034 | [5] -0.024 | [6] 0.063 | [7] 0.027 | [8] 0.01 | [9] 0.025 | [10] -0.064 | [11] 0

POLD2 (UniProt P49005)
inactive: [1] 0.134 | [2] -0.068 | [3] -0.105 | [4] -0.036 | [5] 0.054 | [6] -0.092 | [7] 0.048 | [8] 0.022 | [9] -0.068 | [10] 0.031 | [11] -0.01

Quoted at random: 2 entries already listed, in no set order.
POLD2 (UniProt P49005)
inactive: [1] 0.134 | [2] -0.068 | [3] -0.105 | [4] -0.036 | [5] 0.054 | [6] -0.092 | [7] 0.048 | [8] 0.022 | [9] -0.068 | [10] 0.031 | [11] -0.01

POLG2 (UniProt Q9UHN1)
inactive: [1] -0.019 | [2] 0.013 | [3] -0.017 | [4] 0.034 | [5] -0.024 | [6] 0.063 | [7] 0.027 | [8] 0.01 | [9] 0.025 | [10] -0.064 | [11] 0

Continuation.

POFUT1 (UniProt Q9H488)
inactive: [1] -0.015 | [2] -0.033 | [3] -0.032 | [4] 0.087 | [5] -0.009 | [6] -0.011 | [7] 0.021 | [8] 0.022 | [9] -0.003 | [10] -0.08 | [11] 0.008

PPA1 (UniProt Q15181)
inactive: [1] -0.043 | [2] -0.014 | [3] -0.005 | [4] -0.026 | [5] 0.018 | [6] -0.016 | [7] -0.009 | [8] -0.067 | [9] -0.078 | [10] -0.032 | [11] 0.055

PPCS (UniProt Q9HAB8)
inactive: [1] -0.038 | [2] -0.034 | [3] -0.06 | [4] -0.042 | [5] 0.012 | [6] -0.034 | [7] 0.021 | [8] -0.001 | [9] -0.086 | [10] -0.024 | [11] 0.021

PON2 (UniProt Q15165)
inactive: [1] 0.03 | [2] -0.043 | [3] -0.084 | [4] 0.04 | [5] 0.004 | [6] -0.056 | [7] 0.078 | [8] 0.06 | [9] -0.111 | [10] -0.036 | [11] 0.027

POGLUT3 (UniProt Q7Z4H8)
inactive: [1] 0.02 | [2] 0.042 | [3] -0.051 | [4] 0.001 | [5] 0.013 | [6] 0.008 | [7] 0.04 | [8] 0.026 | [9] -0.001 | [10] -0.072 | [11] -0.043

PMAIP1 (UniProt Q13794)
inactive: [1] -0.295 | [2] -0.461 | [3] -0.094 | [4] -0.2 | [5] 0.102 | [6] -0.021 | [7] -0.044 | [8] -0.044 | [9] -0.388 | [10] -0.257 | [11] -0.24

POLR3G (UniProt O15318)
inactive: [1] 0.053 | [2] -0.109 | [3] 0.003 | [4] 0.005 | [5] 0.013 | [6] 0.032 | [7] 0.061 | [8] 0.008 | [9] 0.009 | [10] 0.007 | [11] -0.114

PODXL2 (UniProt Q9NZ53)
inactive: [1] -0.011 | [2] 0.024 | [3] -0.088 | [4] 0.03 | [5] 0.131 | [6] -0.072 | [7] 0.03 | [8] 0.057 | [9] 0 | [10] -0.168 | [11] -0.025

PPIB (UniProt P23284)
inactive: [1] -0.018 | [2] -0.016 | [3] -0.01 | [4] 0 | [5] -0.017 | [6] -0.016 | [7] -0.001 | [8] 0.011 | [9] 0.009 | [10] -0.055 | [11] -0.005
